The assay has as its target mouse plexin B2 Rho GTPase binding domain (RBD) (mouse) (UniProt B2RXS4). Briefly: crystal structure.

Results are given in words; binding and its absence hold for the method and conditions named.

B1: mouse plexin B2 Rho GTPase binding domain (RBD) (domain or fragment, UniProt B2RXS4 1463-1565)
chain: EYAPLTVSVIVQDEGIDAIPVKVLNCDTISQVKEKIIDQVYRTQPCSCWPKPDSVVLEWRPGSTAQILSDLDLTSQREGRWKRINTLMHYNVRDGATLILSKV
In the case of B1, the binding entry was “no binding”.

These data come from publication doi:10.1101/2020.11.19.389494.
